PubChem BioAssay AID1224830, NIAID | 2016

Aim: 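Regulators of TLR4 signalling towards TNF-alpha in macrophage-like cells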 (primary screen)
System: human THP-1 monocytic leukaemia cells, TNF dual-luciferase reporter clone, PMA-differentiated to macrophage-like cells
Reagents: siRNA pool against human genes, 50 nM
Duration: LPS for 4 h, given about 3 days after siRNA transfection
Treatment: bacterial LPS (TLR4 ligand), 10 ng/ml
Detection: 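Ratio of firefly to renilla light, scaled to the plate median and expressed as a robust z-score per replicate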
Reading the numbers: TNF reporter robust z-score: higher = stronger TNF reporter response to LPS
Hit rule: 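a well is active when its z-score exceeds 2.8 or falls below -1.5; control wells carry no call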
The whole screen tested about 18,000 reagents; below is an unselected part. Over the whole deposit, about 2,900 (16%) were called active. 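Calls are made per well; low scores hint the gene aids the LPS response, high scores that it dampens it.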 Repeated entries: four replicate wells of each siRNA pool.

target | TNF reporter robust z-score | Outcome
TMEM91 (transmembrane protein 91) | -0.28 | inactive
TMEM91 (transmembrane protein 91) | 1.17 | inactive
TMEM91 (transmembrane protein 91) | 0.14 | inactive
TMEM91 (transmembrane protein 91) | 1.01 | inactive
DENND5B (DENN domain containing 5B) | 0.11 | inactive
DENND5B (DENN domain containing 5B) | 0.15 | inactive
DENND5B (DENN domain containing 5B) | 0.2 | inactive
DENND5B (DENN domain containing 5B) | 0.35 | inactive
RTP2 (receptor transporter protein 2) | -0.08 | inactive
RTP2 (receptor transporter protein 2) | -0.14 | inactive
RTP2 (receptor transporter protein 2) | -0.36 | inactive
RTP2 (receptor transporter protein 2) | 0.2 | inactive
SVEP1 | -0.35 | inactive
SVEP1 | -0.25 | inactive
SVEP1 | -1.14 | inactive
SVEP1 | -0.76 | inactive
TIMM8A (translocase of inner mitochondrial membrane 8A) | -0.74 | inactive
TIMM8A (translocase of inner mitochondrial membrane 8A) | 0.3 | inactive
TIMM8A (translocase of inner mitochondrial membrane 8A) | -0.9 | inactive
TIMM8A (translocase of inner mitochondrial membrane 8A) | 0.68 | inactive
DNPH1 (2'-deoxynucleoside 5'-phosphate N-hydrolase 1) | 0.17 | inactive
DNPH1 (2'-deoxynucleoside 5'-phosphate N-hydrolase 1) | -0.27 | inactive
DNPH1 (2'-deoxynucleoside 5'-phosphate N-hydrolase 1) | 0.51 | inactive
DNPH1 (2'-deoxynucleoside 5'-phosphate N-hydrolase 1) | 0.2 | inactive
NCMAP (non-compact myelin associated protein) | -0.47 | inactive
NCMAP (non-compact myelin associated protein) | -0.88 | inactive
NCMAP (non-compact myelin associated protein) | -0.26 | inactive
NCMAP (non-compact myelin associated protein) | 0.49 | inactive
CYB561 (cytochrome b561) | -1.14 | inactive
CYB561 (cytochrome b561) | -0.14 | inactive
CYB561 (cytochrome b561) | 0.05 | inactive
CYB561 (cytochrome b561) | -0.78 | inactive
AADAC (arylacetamide deacetylase) | 0.26 | inactive
AADAC (arylacetamide deacetylase) | 0.18 | inactive
AADAC (arylacetamide deacetylase) | 0.17 | inactive
AADAC (arylacetamide deacetylase) | 0.57 | inactive
PGK2 (phosphoglycerate kinase 2) | 2.09 | inactive
PGK2 (phosphoglycerate kinase 2) | 0.37 | inactive
PGK2 (phosphoglycerate kinase 2) | 1.8 | inactive
CDC14B (cell division cycle 14B) | 0.36 | inactive
CDC14B (cell division cycle 14B) | 0.29 | inactive
CDC14B (cell division cycle 14B) | 1.57 | inactive
CDC14B (cell division cycle 14B) | -1.01 | inactive
SUCLA2 (succinate-CoA ligase ADP-forming subunit beta) | -0.41 | inactive
SUCLA2 (succinate-CoA ligase ADP-forming subunit beta) | -0.09 | inactive
SUCLA2 (succinate-CoA ligase ADP-forming subunit beta) | -0.35 | inactive
SUCLA2 (succinate-CoA ligase ADP-forming subunit beta) | -0.79 | inactive
CORO1A (coronin 1A) | 2.09 | inactive
CORO1A (coronin 1A) | 2.95 | active
CORO1A (coronin 1A) | 2.3 | inactive
CORO1A (coronin 1A) | 2 | inactive
DTYMK (deoxythymidylate kinase) | -0.73 | inactive
DTYMK (deoxythymidylate kinase) | -0.77 | inactive
DTYMK (deoxythymidylate kinase) | 1.81 | inactive
DTYMK (deoxythymidylate kinase) | -0.58 | inactive
SLC25A26 | -1.04 | inactive
SLC25A26 | -0.54 | inactive
SLC25A26 | -0.37 | inactive
SLC25A26 | -0.44 | inactive
GRAP2 (GRB2 related adaptor protein 2) | – | inactive
GRAP2 (GRB2 related adaptor protein 2) | 0.07 | inactive
GRAP2 (GRB2 related adaptor protein 2) | -0.32 | inactive
GRAP2 (GRB2 related adaptor protein 2) | -0.23 | inactive
CDH9 (cadherin 9) | 0.05 | inactive
CDH9 (cadherin 9) | 2.11 | inactive
CDH9 (cadherin 9) | 3.78 | active
CDH9 (cadherin 9) | 1.8 | inactive
MRPL20 (mitochondrial ribosomal protein L20) | 1.13 | inactive
MRPL20 (mitochondrial ribosomal protein L20) | 0.64 | inactive
MRPL20 (mitochondrial ribosomal protein L20) | -0.21 | inactive
MRPL20 (mitochondrial ribosomal protein L20) | 0.42 | inactive
SDS (serine dehydratase) | -0.08 | inactive
SDS (serine dehydratase) | 0.53 | inactive
SDS (serine dehydratase) | 1.17 | inactive
SDS (serine dehydratase) | 1.59 | inactive

Hits (from the list above):
target | TNF reporter robust z-score | Outcome
CORO1A (coronin 1A) | 2.95 | active
CDH9 (cadherin 9) | 3.78 | active
